In patent publication US20250367218A1, “METHODS OF TREATING METABOLIC DISORDERS AND COMBINATION PRODUCTS FOR USE IN THE SAME” (INSTITUT PASTEUR DE MONTEVIDEO, priority 2024, published 2025):
For some assays here: At least one structure is not confirmed: it was looked up by name or label, or the drawing left a doubt. Some of these results come from one statement about several compounds together.

Legend:
Assay type in all cases: in vivo, C57BL/6J mice
[1] = Blood glucose measurements: fasting/basal glucose and glucose tolerance test (GTT) in HFD mice; conditions: 4 weeks, FIG. 7B
Procedure: Blood glucose measurements: Mice were kept in fasting for 16 h before fasting glucose measurement and glucose tolerance tests (GTT). When performing GTT, mice were injected (IP) with 1.5 g/kg body weight of glucose solution. Plasma glucose concentrations were measured from blood obtained from the tail using a hand-held glucometer (Accu-Chek, Roche).
Glucose tolerance (“GTT”), basal glucose, and glucose Area Under the Curve (“AUC”) were also measured following two weeks of treatment, and the results are presented graphically in FIGS. 2A, 2B, and 2C with * indicating a statistically significant difference, p<0.05.
A higher dose of SANA was then assessed for its ability to prevent the regain of weight in mice following discontinuation of GLP-1 treatment. Referring to FIGS. 6B and 6C, mice were fed a high-fat diet for a period of 5.5 weeks, and then were untreated (HFD), treated with GLP-1 agonist (semaglutide, 10 nmol/kg/day—SC), or treated with semaglutide+SANA for a period of 1.5 weeks, at which time, the semaglutide treatment was ceased and the groups were treated only with SANA (200 mg/kg/day, PO). The weight regain of the mice was monitored for another 1.5-6.5 weeks. *, **, ***, #, and ## show statistically significant differences, p<0.05, p<0.01, p<0.001, p<0.05, and p<0.01, respectively.
As described in Example 2A above, mice were fed with a high fat diet (HFD) for 5.5 weeks prior to the initiation of treatment, and the high-fat diet continued during the 4 week treatment period. Different doses of semaglutide were provided, either alone or in combination with SANA, and compared to SANA alone and untreated mice alone. Specifically, mice were either untreated (HFD) (n=5), or treated with SANA (200 mg/kg/day, n=5), semaglutide (0.25 nmol/kg/day, n=5), semaglutide (2 nmol/kg/day, n=4), a combination of SANA (200 mg/kg/day) and semaglutide (0.25 nmol/kg/day) (n=5), or a combination of SANA (200 mg/kg/day) and semaglutide (2 nmol/kg/day) (n=3). […]

[2] = Cumulative food intake of mice fed a high-fat diet (HFD); conditions: SANA 200 mg/kg/day; for cumulative food intake, increasing by a factor: obese HFD mice, 2-week treatment, liraglutide 0.2 mg/kg/day, alone or concomitant, FIG. 1C
Procedure: (§1) All studies conducted in mice utilized C57BL/6J mice maintained at the Institut Pasteur de Montevideo Animal facility (UBAL). Experimental protocols were approved by the Institutional Animal Care and Use Committee of the Institut Pasteur de Montevideo (CEUA, Protocol numbers 003-19 and 006-19). Studies were performed according to the methods approved in the protocols. All the experiments were performed on adult male mice (10-12 weeks of age) and were conducted at either 22° C. with free access to food and water. Unless specified, mice were housed at 22° C. in groups of five.
(§2) High-fat diet (HFD) feeding: Male C57BL/6J mice housed at 22° C. were fed a high-fat diet (42% fat and 0.25% cholesterol, AlN93G, LabDiet, USA), starting at 12 weeks of age and for a duration of 5 weeks prior to beginning administration of any active pharmaceutical ingredients. After the onset of the treatment, HFD ad libitum was maintained until the end of the experiments.
(§3) Drug delivery: SANA was administered orally (PO) by mixing with the food (50, 100, or 200 mg/kg/day), or subcutaneously (SC, 10, 15, or 20 mg/kg/day in 100 mM phosphate buffer, pH 6.5). In all cases the vehicle was used as control. Liraglutide (Novo Nordisk, Denmark) was administered daily, subcutaneously (SC, 0.2 mg/kg/day). Semaglutide (Ozempic®, Novo Nordisk, Denmark) was administered subcutaneously (SC, 2 nmol/kg/day or 40 mg/kg every 3 days).
Mice were fed with a high fat diet (HFD) for 5 weeks prior to the initiation of treatment, and the high-fat diet continued during a 2-week treatment period. […]
A higher dose of SANA was then assessed for its ability to prevent the regain of weight in mice following discontinuation of GLP-1 treatment. […] The weight regain of the mice was monitored for another 1.5-6.5 weeks. *, **, ***, #, and ## show statistically significant differences, p<0.05, p<0.01, p<0.001, p<0.05, and p<0.01, respectively. […]

[3] = Weight regain of HFD mice after discontinuation of treatment (rebound effect); conditions: treatment stopped after week 9, monitored through week 14; liraglutide 0.2 mg/kg/day SC; p<0.05; FIG. 5
Procedure: Comparison of weight regain in mice following discontinuation of treatment with SANA or a GLP-1 agonist was measured in order to quantify the “rebound effect” as a result of discontinuing treatment. Mice were fed a high-fat diet for a period of 5 weeks, and were then untreated (HFD), treated with GLP-1 agonist (liraglutide, 0.2 mg/kg/day SC daily injection, LIRA), or treated with SANA (200 mg/kg/day PO) for a period of nine weeks. The high-fat diet was continued during the treatment period. Following week 9, all treatment was discontinued and weight regain in the mice was monitored through week 14.
The ability of SANA to prevent the regain of weight in mice following discontinuation of GLP-1 treatment was also assessed. Mice were fed a high-fat diet for a period of 5.5 weeks, and were then untreated (HFD), treated with GLP-1 agonist (semaglutide, 40 mg/kg s.c. every 3 days), or treated with semaglutide+SANA (10 mg/kg/day) for a period of 2.5 weeks. At week 8, except for the control group (HFD) all groups were treated only with SANA (10 mg/kg/day, s.c.).
A higher dose of SANA was then assessed for its ability to prevent the regain of weight in mice following discontinuation of GLP-1 treatment. […] The weight regain of the mice was monitored for another 1.5-6.5 weeks. *, **, ***, #, and ## show statistically significant differences, p<0.05, p<0.01, p<0.001, p<0.05, and p<0.01, respectively.

[4] = Body weight of obese mice fed a high-fat diet (HFD) during treatment; conditions: nine weeks, liraglutide 0.2 mg/kg/day SC or SANA 200 mg/kg/day PO, FIG. 5
Procedure: as §1, §2
as §3, with “days). […]” for “days).”

[5] = SANA 200 mg/kg/day, semaglutide 2 nmol/kg/day, alone or combined

O=C(O)c1cc(/C=C/[N+](=O)[O-])ccc1O [SANA, 5-(2-nitroethenyl) salicylic acid]
fasting glucose levels, decrease compared to untreated mice [1, 5]: 20-25% | cumulative food intake, increasing by a factor [2]: 2-2.5 | cumulative food intake, less than the untreated group ([2]; week 4, semaglutide 2 nmol/kg/day, alone or combined, FIG. 7A): 5-10%

CCCCCCCCCCCCCCCC(=O)N[C@@H](CCC(=O)NCCCC[C@H](NC(=O)[C@H](C)NC(=O)[C@H](C)NC(=O)[C@H](CCC(N)=O)NC(=O)CNC(=O)[C@H](CCC(=O)O)NC(=O)[C@H](CC(C)C)NC(=O)[C@H](Cc1ccc(O)cc1)NC(=O)[C@H](CO)NC(=O)[C@H](CO)NC(=O)[C@@H](NC(=O)[C@H](CC(=O)O)NC(=O)[C@H](CO)NC(=O)[C@@H](NC(=O)[C@H](Cc1ccccc1)NC(=O)[C@@H](NC(=O)CNC(=O)[C@H](CCC(=O)O)NC(=O)[C@H](C)NC(=O)[C@@H](N)Cc1cnc[nH]1)[C@@H](C)O)[C@@H](C)O)C(C)C)C(=O)N[C@@H](CCC(=O)O)C(=O)N[C@@H](Cc1ccccc1)C(=O)N[C@H](C(=O)N[C@@H](C)C(=O)N[C@@H](Cc1c[nH]c2ccccc12)C(=O)N[C@@H](CC(C)C)C(=O)N[C@H](C(=O)N[C@@H](CCCNC(=N)N)C(=O)NCC(=O)N[C@@H](CCCNC(=N)N)C(=O)NCC(=O)O)C(C)C)[C@@H](C)CC)C(=O)O [liraglutide, reference compound]
weight re-gained after discontinuation, more than mice treated with SANA [3]: 15% | cumulative food intake, increasing by a factor [2]: 2-2.5 | average reduction in weight during the treatment period [4]: 15%

semaglutide: GLP-1 agonist, Semaglutide (Ozempic, Novo Nordisk, Denmark), administered subcutaneously
fasting glucose levels, decrease compared to untreated mice [1, 5]: 20-25% | fasting glucose levels, decrease compared to untreated mice ([1]; semaglutide 0.25 nmol/kg/day alone or with SANA 200 mg/kg/day): 20-25%
